According to paper PMC12040169 (PLOS Biology, 2025):
The list shows a part of the results.

test system: T1, CTL2-GFP (C. trachomatis L2/434/Bu, GFP-expressing); parameters: species or system HeLa; Intracellular C. trachomatis growth in HeLa cells, bulk GFP fluorescence relative to DMSO; conditions: bulk GFP, single well; 28.5 h, 10 µM; inhibitor
T1 construct: L2/434/Bu, GFP-expressing

| Structure (SMILES) | % of control remaining [%] |
| --- | --- |
| Nc1ccc(-c2cncc(NCCc3ccccn3)n2)cc1 [CBK065632] | 160.557 |
| Clc1ccc(COc2ccc(/C=N/Nc3nc(N4CCOCC4)nc(N4CCOCC4)n3)cc2)c(Cl)c1 [CBK262061] | 104.441 |
| Cc1ccccc1C(NC(=O)C1CCN(C(=O)OCc2ccccc2)CC1)c1ccc(=O)[nH]c1 (stereo not drawn) [CBK083200] | 109.535 |
| c1ccc2c(Sc3nccnc3N3CCCC3)cccc2c1 [CBK089527] | 102.231 |
| O=C1CC(C(=O)N2CCN(c3ncccn3)CC2)c2ccccc21 (stereo not drawn) [CBK144505] | 103.289 |
| CN(Cc1ccccc1)Cc1cc(CC2(NCc3ccccc3)COC2)no1 [CBK289645] | 129.861 |
| O=C(CN1CCC2(CC1)CN(CCO)c1ccccc12)Nc1ccc(F)c(Cl)c1 [CBK126761] | 106.301 |
| FC(F)(F)c1ccncc1-n1cccc1 [CBK021909] | 116.505 |
| O=C(CSc1nnc(-c2cccnc2)n1-c1ccccc1)Nc1ccc(Br)cc1 [CBK265203] | 114.87 |
| CN1CCN(c2cc(N3CCN(C(=O)c4ccc(F)cc4F)CC3)c([N+](=O)[O-])cc2F)CC1 [CBK265280] | 117.58 |
| O=C(Nc1nn(Cc2ccc(Oc3ccccc3)cc2)c2ccccc12)c1ccno1 [CBK048224] | 79.1251 |
| O=C(NCC1CCCO1)c1ccc(-n2ccnc2)c(-n2cccc2)c1 (stereo not drawn) [CBK285356] | 141.331 |
| COc1ccc(CC(=O)Nc2nc(OC)cnc2-c2ccoc2)cc1 [CBK145435] | 128.686 |
| CCCOc1ccc(C(N)CC(=O)O)cc1 (stereo not drawn) [CBK261360] | 122.845 |
| COc1ccccc1C1(O)CCN(CC(O)c2ccc(C(C)(C)C)cc2)CC1 (stereo not drawn) [CBK286335] | 91.8009 |
| Cn1nc(C(=O)NCc2ccccc2)cc1C(=O)NCc1ccccc1 [CBK270004] | 111.469 |
| O=C(CSc1ccccn1)Nc1ccccc1-c1ccccc1 [CBK263553] | 80.674 |
| C=Cn1ncc(CN(CCCn2ccnc2)CC2CC=CCC2)c1C (stereo not drawn) [CBK283219] | 124.51 |
| CC(C)Oc1ncc(C(=O)Nc2cnn(CC(N)=O)c2)cc1Cl [CBK306311] | 80.0962 |
| CC(C)(CO)CNc1cncc(-c2cccnc2)n1 [CBK037881] | 116.695 |
| CCOc1cc(C(=S)N2CCOCC2)ccc1OCc1ccccc1 [CBK027466] | 118.186 |
| C=CCN1C(=O)C2(Nc3ccccc3C(=O)N2c2ccc(Cl)cc2)c2ccccc21 (stereo not drawn) [CBK093474] | 79.3878 |
| CC(=O)N1CCc2ccc(NC(=O)c3cc(-c4ccc(C(=O)N5CCOCC5)cc4)cnc3N)cc21 [CBK160205] | 113.024 |
| Nc1cc(N)nc(SCc2cccnc2)n1 [CBK267459] | 144.89 |
| CC(Cc1ccccn1)N(C)C(=O)c1cnn(-c2ccc(F)cc2)c1 (stereo not drawn) [CBK283316] | 118.546 |
| COc1ccc([C@@]23CC[C@@H](NC(=O)c4ccc5c(c4)OC(F)(F)O5)C[C@@H]2N(C)CC3)cc1OC [CBK076658T] | 110.305 |

| Structure (SMILES) | % of control remaining [%] |
| --- | --- |
| CSCCC(=O)Nc1cc(C)nc2ccccc12 [CBK122729] | 103.624 |
| O=C(C1CCCCC1)N1CCCC1c1n[nH]cc1-c1ccncc1 (stereo not drawn) [CBK283434] | 139.609 |
| CN(C)Cc1c(O)ccc2occ(C(O)c3ccccc3)c12 (stereo not drawn) [CBK261313] | 100 |
| Cc1cc(Cl)c(S(=O)(=O)Nc2ccon2)cc1OCC(N)=O [CBK266589] | 177.846 |
| CSc1ccc(-c2nc(NC(=O)C(C)C)cc3ccccc23)cc1 [CBK085735] | 125.531 |
| CCN1c2ccc(-c3cncn3CC(=O)NC(C)(C)C)cc2CC1C (stereo not drawn) [CBK281815] | 130.502 |
| O=C(c1cc[nH]n1)N1CCCCC1c1ncc(-c2cccc(F)c2)[nH]1 (stereo not drawn) [CBK291217] | 129.243 |
| CCc1[nH]nc(O)c1Cc1c(Cl)cccc1Cl [CBK105304] | 204.202 |
| CN1CCC(N2CCN(C(=O)c3cncc(-c4ccc(C(=O)N5CCOCC5)cc4)c3)CC2)CC1 [CBK158600] | 85.3685 |
| CC(=O)c1cc(CN(C)C(C)c2ccncn2)cs1 (stereo not drawn) [CBK307470] | 125.455 |
| O=C(CC1CC1)Nc1cc(-c2ccncc2)c[nH]c1=O [CBK116585] | 118.323 |
| COc1ccc(C(=O)NCCc2ccc(S(N)(=O)=O)cc2)cc1[N+](=O)[O-] [CBK264335] | 122.937 |
| CC(=O)c1cc(CCCO)n(Cc2ccco2)c1C [CBK022013] | 101.202 |
| Cn1c(CN2C[C@H](O)C[C@H]2c2nc(-c3ccccc3)no2)nc2ccccc21 [CBK288834] | 139.631 |
| CCN(C(=O)c1ccncc1)C(CC1CCCCC1)c1ccccc1 (stereo not drawn) [CBK061674] | 95.688 |
| O=[N+]([O-])c1ccccc1/C=N/Nc1nnn[nH]1 [CBK260971] | 73.4909 |
| O=C1N=C(NC2CCCC2)OC12CCN(Cc1ccccc1)CC2 [CBK115430] | 145.696 |
| CCn1c(COc2ccccc2)nnc1Sc1ccc([N+](=O)[O-])cc1C=O [CBK267888] | 60.9632 |
| Cc1nn2c(COc3ccc(NC(=O)C4CCCCC4)cc3)nnc2c2ccccc12 [CBK268528] | 89.3759 |
| NC(=O)CN1CCN(c2nccnc2OCc2ccc(Cl)c(Cl)c2)CC1 [CBK083079T] | 61.0558 |
| Cc1cc(NC(=O)CN2CCC(CNc3ncccc3C#N)C2)on1 (stereo not drawn) [CBK306127] | 114.75 |
| Cc1ccc(CNCCn2nnc(-c3ccc(CN4CCC(C)CC4)cc3)n2)cc1 [CBK154882T] | 116.235 |
| Cc1csc(NC(=O)CN2CCC(c3ccc(F)cc3)CC2)n1 [CBK283567] | 128.879 |
| CCc1nccn1CCC(=O)NC(c1ccc(C)cc1)c1cccnc1 (stereo not drawn) [CBK282032] | 126.787 |
| O=C(COc1cc(C(=O)O)nc2ccccc12)NCc1ccc(Cl)cc1 [CBK287247] | 130.793 |
| CN(C)S(=O)(=O)c1ccc(C(=O)C2=C(O)C(=O)N(CCN3CCOCC3)C2c2ccco2)cc1 (stereo not drawn) [CBK264521] | 100 |

| Structure (SMILES) | % of control remaining [%] |
| --- | --- |
| CCOc1ccc(S(=O)(=O)N2CCCN(Cc3ccc(C#N)cc3)CC2)c2cccnc12 [CBK062759] | 54.3283 |
| Cc1noc(C)c1C(=O)N1CCN(Cc2ccco2)C[C@@H]1C(C)C [CBK284248] | 119.537 |
| O=C(NC1CCN(CC(F)(F)F)C1=O)c1ccnc(C2CC2)n1 (stereo not drawn) [CBK306268] | 121.74 |
| CCN1CCN(C(=O)c2ccc(N(C)C)cc2)CC1 [CBK200252] | 161.316 |
| Cc1ccc(Cn2nc(NC(=O)c3ccccc3)c3ccccc32)cc1 [CBK048213] | 88.7593 |
| CC1Oc2ccc(S(=O)(=O)Nc3ccc(CCC(=O)O)cc3)cc2NC1=O (stereo not drawn) [CBK299769] | 191.028 |
| Cc1c(NC(=S)NC(=O)Cc2ccccc2)cccc1-c1nc2ncccc2o1 [CBK264345] | 54.1242 |
| O=C1Nc2ccc(Br)cc2C(=O)N2CCN(C(=O)c3ccccc3)C[C@H]12 [CBK289589] | 119.098 |
| CC1CCc2c(sc(NC(=O)COc3ccccc3)c2C(=O)Nc2ccccc2Cl)C1 (stereo not drawn) [CBK263044] | 95.598 |
| O=C(O)c1cc(Sc2nnnn2-c2ccccc2)c2ccccc2c1O [CBK006925] | 118.97 |
| Cc1ccc(Cl)cc1NC(=O)c1cc(NC(=O)C2CC=CCC2C(=O)O)ccc1N1CCOCC1 (stereo not drawn) [CBK268479] | 119.63 |
| COc1ccccc1NC(=O)c1cn(Cc2ccc(N)cc2)cn1 [CBK288045] | 102.137 |
| Clc1ccc(COc2cccc(CNCc3ccccn3)c2)c(Cl)c1 [CBK270060C] | 142.291 |
| O=C1c2ccccc2CN1CCNS(=O)(=O)c1ccc2oc3ccccc3c2c1 [CBK264918] | 110.812 |
| Cc1nc(-c2ccccc2)sc1C(=O)C1=C(O)C(=O)N(CCN(C)C)C1c1ccc(Cl)cc1 (stereo not drawn) [CBK266595] | 167.068 |
| O=C(NCCO)c1cccc(-c2cncc(N3CCCCC3CCO)n2)c1 (stereo not drawn) [CBK037759] | 156.212 |
| Cn1cnnc1SCC(=O)c1cccc(C(F)(F)F)c1 [CBK067718] | 99.807 |
| Cc1nc(N2CCCCC2)ncc1C(=O)NCCc1cc[nH]n1 [CBK307035] | 135.72 |
| Cc1cc(C(C)NC(=O)C2CCCN(S(C)(=O)=O)C2)c(C)s1 (stereo not drawn) [CBK305464] | 128.142 |
| COc1cc(CO)cc(I)c1OCC(=O)Nc1ccccc1 [CBK265950] | 101.886 |
| CCCn1cnc2sc(C(=O)Nc3ccc(C)cc3C)c(C)c2c1=O [CBK071815] | 100 |
| OC1CCC(Nc2cncc(-c3cccc4ccccc34)n2)CC1 (stereo not drawn) [CBK065902] | 149.939 |
| COc1ccc(Oc2ccc(C=Cc3nc4sc(C(=O)O)c(C)c4c(=O)[nH]3)cc2[N+](=O)[O-])cc1 [CBK295637] | 135.029 |
| CCN(CC)C(=O)CCNC(=O)c1ccc2c(c1)COC(C1CCN(C(=O)OC(C)(C)C)CC1)O2 (stereo not drawn) [CBK173273] | 103.521 |
| CC(C)Cc1ccc(C(CC(=O)O)C(=O)O)cc1 (stereo not drawn) [CBK286703] | 132.493 |
| Cc1ccc(S(=O)(=O)Nc2ccccc2CNc2ccc(Br)cc2)cc1 [CBK264214] | 86.0816 |

21 structures out of the list, ordered by molecular weight, smallest number first:

| Structure (SMILES) | % of control remaining [%] |
| --- | --- |
| CC(C)Cc1ccc(C(CC(=O)O)C(=O)O)cc1 (stereo not drawn) [CBK286703] | 132.493 |
| O=C(CC1CC1)Nc1cc(-c2ccncc2)c[nH]c1=O [CBK116585] | 118.323 |
| CN(C)Cc1c(O)ccc2occ(C(O)c3ccccc3)c12 (stereo not drawn) [CBK261313] | 100 |
| Cn1cnnc1SCC(=O)c1cccc(C(F)(F)F)c1 [CBK067718] | 99.807 |
| OC1CCC(Nc2cncc(-c3cccc4ccccc34)n2)CC1 (stereo not drawn) [CBK065902] | 149.939 |
| O=C(CSc1ccccn1)Nc1ccccc1-c1ccccc1 [CBK263553] | 80.674 |
| O=C(C1CCCCC1)N1CCCC1c1n[nH]cc1-c1ccncc1 (stereo not drawn) [CBK283434] | 139.609 |
| Cc1csc(NC(=O)CN2CCC(c3ccc(F)cc3)CC2)n1 [CBK283567] | 128.879 |
| CSc1ccc(-c2nc(NC(=O)C(C)C)cc3ccccc23)cc1 [CBK085735] | 125.531 |
| C=Cn1ncc(CN(CCCn2ccnc2)CC2CC=CCC2)c1C (stereo not drawn) [CBK283219] | 124.51 |
| Cc1ccc(Cn2nc(NC(=O)c3ccccc3)c3ccccc32)cc1 [CBK048213] | 88.7593 |
| O=C(NCCO)c1cccc(-c2cncc(N3CCCCC3CCO)n2)c1 (stereo not drawn) [CBK037759] | 156.212 |
| CN(Cc1ccccc1)Cc1cc(CC2(NCc3ccccc3)COC2)no1 [CBK289645] | 129.861 |
| COc1ccc(C(=O)NCCc2ccc(S(N)(=O)=O)cc2)cc1[N+](=O)[O-] [CBK264335] | 122.937 |
| COc1cc(CO)cc(I)c1OCC(=O)Nc1ccccc1 [CBK265950] | 101.886 |
| Cc1ccc(S(=O)(=O)Nc2ccccc2CNc2ccc(Br)cc2)cc1 [CBK264214] | 86.0816 |
| CC1CCc2c(sc(NC(=O)COc3ccccc3)c2C(=O)Nc2ccccc2Cl)C1 (stereo not drawn) [CBK263044] | 95.598 |
| Cc1ccccc1C(NC(=O)C1CCN(C(=O)OCc2ccccc2)CC1)c1ccc(=O)[nH]c1 (stereo not drawn) [CBK083200] | 109.535 |
| CC(=O)N1CCc2ccc(NC(=O)c3cc(-c4ccc(C(=O)N5CCOCC5)cc4)cnc3N)cc21 [CBK160205] | 113.024 |
| CCN(CC)C(=O)CCNC(=O)c1ccc2c(c1)COC(C1CCN(C(=O)OC(C)(C)C)CC1)O2 (stereo not drawn) [CBK173273] | 103.521 |
| Cc1ccc(Cl)cc1NC(=O)c1cc(NC(=O)C2CC=CCC2C(=O)O)ccc1N1CCOCC1 (stereo not drawn) [CBK268479] | 119.63 |
